Test results taken from US20170037111A1, “Novel peptides and combination of peptides for use in immunotherapy against ovarian cancer and other cancers” (immatics biotechnologies GmbH, priority 2015, published 2017).

Tested on: tumor samples of other cancer types
Assay: LC-MS detection of peptide presentation on other tumor types, normal tissues and cell lines (Table 4A/4B, FIG. 1)
Parameters: species or system human
Conditions: FIG. 1D, 1L-AE: samples with detection

Sequence | normal tissues with detectable presentation (which tissues)
ALLENPKMEL (listed as Homo sapiens) [SEQ ID NO 441] | 1 adrenal gland
FLFPNQYVDV (listed as Homo sapiens) [SEQ ID NO 248] | 1 spleen
FLLEDDIHVS (listed as Homo sapiens) [SEQ ID NO 38] | 1 trachea
KIFEMLEGV (listed as Homo sapiens) [SEQ ID NO 11] | 1 brain, 1 lung, 1 ureter
KLDDLTQDLTV (listed as Homo sapiens) [SEQ ID NO 32] | 1 liver
KLLNKIYEA (listed as Homo sapiens) [SEQ ID NO 620] | 1 lung, 1 uterus
KTINKVPTV (listed as Homo sapiens) [SEQ ID NO 198] | 1 lung
SLFGNSGILENV (listed as Homo sapiens) [SEQ ID NO 479] | 1 spleen
SLMEPPAVLLL (listed as Homo sapiens) [SEQ ID NO 1] | 1 lymph node
VMNDRLYAI (listed as Homo sapiens) [SEQ ID NO 587] | 1 pancreas, 3 spleens, 1 thyroid gland
